Experimental data from PubChem BioAssay AID493014 (National Center for Advancing Translational Sciences (NCATS), 2011).
This is one part of the list. Further columns of the screen follow, without active or inactive calls. The list favours compounds with an active or inconclusive main result. The note in brackets gives the kind of curve behind each potency; many fits are weak.

Assay: qHTS Assay to Find Inhibitors of Chronic Active B-Cell Receptor Signaling
Conditions: ABC-DLBCL IkBa-CBG/CBR reporter, luminescence ratio (green luciferase fused to IkBa over red control in TMD8 lymphoma cells), 4 h
Procedure, shortened: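 Cell line TMD8 (human ABC DLBCL), stably expressing tet-inducible CBG68-IkBa fusion and CBR; IMDM/0.5% FBS; cpd up to 46 uM; dox induction, 4 h, 37C/5% CO2; dual luminescence; green/red ratio; MG132 control.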

[1] = measured here: CBR red luminescence, cell number
[2] = measured here: IkBa-CBG green luminescence

SMILES	AC50 [1]	AC50 [2]
CCC(=NCc1ccco1)c1c(O)n(Cc2ccccc2)c(=O)[nH]c1=O	25.1 µM [falling, single point]	–
c1ccc(CN2CCNCC2)nc1	11.2 µM [rising, single point]	–
COc1ccccc1CNC(=O)C(NS(=O)(=O)c1ccc2c(c1)oc(=O)n2C)C(C)C (configuration not stated)	0.146 µM [rising, full curve]	–
Cc1cc(C)cc(N2C(=O)NC(=O)/C(=C\C=C\c3ccco3)C2=O)c1	29.1 µM [rising, single point]	20.6 µM [falling, single point]
O=C(Cn1cnc2sc3c(c2c1=O)CCCC3)NCCCC(=O)N1CCC2(CC1)OCCO2	2.59 µM [falling, partial curve]	–
CCc1ccc(CN2CCN(Cc3ccc(SC)cc3)CC2)cc1	35.5 µM [rising, single point]	–
O=C(Nc1ccc2c(c1)OCCO2)c1cccn(Cc2ccccc2)c1=O	17.8 µM [falling, single point]	2.51 µM [rising, full curve, poor fit]
COc1cc2c3c(c1OC)-c1cc(O)ccc1CC3NCC2 (configuration not stated)	1.84 µM [rising, partial curve, poor fit]	–
CCOC(=O)c1c(NC(NC(=O)CF)C(Cl)(Cl)Cl)sc2c1CCCC2 (configuration not stated)	29.1 µM [falling, single point]	–
CCOC(=O)C1=C(C)OC(N)=C(C(=O)OCC)[C@@]12C(=O)N(CC(N)=O)c1ccccc12	10.3 µM [rising, partial curve, poor fit]	–
CN1CCc2nc(SCc3cccc(Br)c3)c(C#N)cc2C1	35.5 µM [falling, single point]	–
OC(Cc1ccccc1)(c1ccccc1)C1CN2CCC1CC2 (configuration not stated)	10.3 µM [falling, single point]	–
Cc1ccc(C)c(NC(=O)CSc2nnc([C@@H](N)Cc3c[nH]c4ccccc34)o2)c1	14.1 µM [falling, partial curve, poor fit]	–
O=c1c2ccccc2nc(/C=C/c2ccc(O)c(O)c2)n1-c1ccccc1	14.1 µM [falling, partial curve]	–
COC(=O)C1=C(c2ccc(OC(F)(F)F)cc2)C[C@@H]2CC[C@H]1N2C(=O)NCc1cc(C)oc1C(F)(F)F	29.1 µM [falling, single point]	–
O=C(O)c1cccc2c1NC(C(=O)O)C1CC(Sc3ccccc3[N+](=O)[O-])C(Cl)C21 (configuration not stated)	23.1 µM [falling, single point]	–
Clc1ccc(C(OCCN2CCCCC2)c2ccccc2)cc1 (configuration not stated)	29.1 µM [falling, single point]	–
O=C(NC1CN2CCC1CC2)c1cc(Cl)c([N+](=O)[O-])c2nc[nH]c12 (configuration not stated)	23.1 µM [falling, single point]	–
O=C(O)C1(c2ccc(Cl)cc2)CCC1	2.59 µM [falling, single point]	–
O=c1[nH]c(=S)n(Cc2ccc(F)cc2)c(O)c1C=NCC1CCCO1 (configuration not stated)	0.82 µM [falling, full curve, poor fit]	–
COc1ccc(CC2(CCc3ccccn3)C(=O)NC(=O)N(c3ccccc3C)C2=O)cc1OC (configuration not stated)	35.5 µM [rising, single point]	–
Cc1cccc(N2C(=O)NC(=O)/C(=C\c3cnn(-c4ccccc4)c3)C2=O)c1	11.2 µM [rising, partial curve, poor fit]	–

An excerpt of the results above:
SMILES	AC50 [1]	AC50 [2]
O=C(Nc1ccc2c(c1)OCCO2)c1cccn(Cc2ccccc2)c1=O	17.8 µM [falling, single point]	2.51 µM [rising, full curve, poor fit]
COc1cc2c3c(c1OC)-c1cc(O)ccc1CC3NCC2 (configuration not stated)	1.84 µM [rising, partial curve, poor fit]	–

Additional compounds.

SMILES	AC50 [1]	AC50 [2]
N#Cc1c(Cl)nc(Cl)c2c1CCN(Cc1ccccc1)C2	3.66 µM [falling, full curve]	–
C=CCN1C(=O)NC(=O)/C(=C/c2ccc(OC)c(COc3ccc(NC(C)=O)cc3)c2)C1=O	12.6 µM [rising, single point]	–
CC1CC(C)CN(CC(=O)c2ccc(OC(F)F)cc2)C1 (configuration not stated)	32.6 µM [falling, single point]	–
CC(Cc1ccccc1)NCCC(c1ccccc1)c1ccccc1 (configuration not stated)	29.1 µM [falling, single point]	–
CC/C(=C\C=C\[C@@H]1C=C[C@@H]2CCC[C@H]2[C@@H]1C(=O)c1ccc[nH]1)[C@@H]1O[C@@H]([C@@H](C)C(=O)O)CC[C@@H]1C	5.17 µM [falling, partial curve]	11.2 µM [rising, partial curve]
C[C@]12CC[C@H](O)C[C@H]1CC[C@@H]1[C@@H]2C[C@@H](O)[C@]2(C)[C@@H](C3=CC(=O)OC3)CC[C@]12O	7.31 µM [falling, partial curve, poor fit]	–
O=Cc1cn(Cc2cccc(F)c2)c2ccccc12	–	8.2 µM [falling, partial curve, poor fit]
CCc1ccc(N2C(=O)Nc3ccccc3C2(O)C(=O)N2CCN(c3ccccn3)CC2)cc1 (configuration not stated)	11.2 µM [falling, partial curve, poor fit]	–
O=C(NCCc1ccc(F)cc1)c1coc(=O)c(Br)c1	35.5 µM [falling, single point]	–
CCOc1ccccc1NC(=O)c1c(NCc2cccs2)sc2c1CCCCC2	14.1 µM [rising, partial curve, poor fit]	–
O=C(CSC1c2ccccc2-c2ccccc21)N/N=C/c1ccccc1O	32.6 µM [falling, single point]	–
CCc1ccc(-c2cc(C)no2)cc1S(=O)(=O)Nc1ccccn1	6.31 µM [rising, full curve, poor fit]	–
CCC(C)NC(=O)CCC(=O)OC1O[C@H]2OC3(C)CC[C@H]4[C@H](C)CCC(C1C)C24OO3 (some centres not stated)	8.91 µM [rising, partial curve, poor fit]	–
CC(NCc1ccc(Cl)c(Cl)c1)C(O)c1ccccc1 (configuration not stated)	0.517 µM [rising, partial curve, poor fit]	–
C[C@]12CC[C@H](N)CC1=CCC1C2CC[C@@]2(C)C1CC[C@@H]2O (some centres not stated)	29.1 µM [falling, single point]	–
CC(=O)Nc1ccccc1C(=O)OCC(=O)c1ccccc1Cl	4.61 µM [rising, partial curve, poor fit]	–
COc1cc(/C=C2/C(=O)NC(=O)N(c3ccc(C)cc3)C2=O)cc(OC)c1OC	0.501 µM [rising, partial curve, poor fit]	–
COCCNC(=O)c1c(N)n(Cc2ccco2)c2nc3ccccc3nc12	0.316 µM [falling, full curve, poor fit]	–
COc1ccccc1OCC#CCN1CCCC(C)C1 (configuration not stated)	11.2 µM [rising, partial curve, poor fit]	–
CCOc1ccc(-c2cc(C)[n+](CCN(CC)CC)c(-c3ccc(OCC)cc3)c2)cc1	15.8 µM [falling, single point]	–
COC(=O)C1=C(N)Oc2c(c(=O)oc3ccccc23)C1c1cccnc1 (configuration not stated)	1.84 µM [falling, full curve, poor fit]	–
CCNC(=O)[C@H]1O[C@@H](n2cnc3c(N)ncnc32)[C@H](O)[C@@H]1O	0.794 µM [rising, full curve, poor fit]	0.112 µM [falling, full curve, poor fit]

SMILES	AC50 [1]	AC50 [2]
CCCCC/C=C\C/C=C\C/C=C\C/C=C\CCCC(=O)Nc1ccc(O)cc1	2.24 µM [rising, partial curve, poor fit]	–
COC(=O)C1=C(c2ccc(OC(F)(F)F)cc2)C[C@@H]2CC[C@H]1N2C(=O)NCCCOC(C)C	6.51 µM [rising, single point]	–
COc1cccc(NP(=O)(Oc2ccc(Cl)cc2)Oc2ccc(Cl)cc2)c1	14.6 µM [falling, partial curve]	–
CN(C)c1ccc(/C=C/C=C/c2sc3ccccc3[n+]2C)cc1	10 µM [falling, partial curve, poor fit]	–
COc1cc(C(=O)/C=C/c2cccnc2)ccc1O	8.91 µM [falling, partial curve, poor fit]	–
O=c1[nH]c(=S)n(C2CC2)c(O)c1/C=N/Nc1cccc2ccccc12	13 µM [falling, partial curve]	–
O=C1C(c2ccccc2)=C(N2CC2)c2ccccc21	0.112 µM [rising, full curve, poor fit]	–
CCOc1ccc(-n2cnc3scc(-c4ccc(OC)c(OC)c4)c3c2=O)cc1	11.2 µM [rising, partial curve, poor fit]	–
COc1ccccc1C1C([N+](=O)[O-])=C(N)Oc2c1c(=O)oc1ccccc21 (configuration not stated)	0.501 µM [falling, full curve]	–
O=C(Cn1c(=O)oc2ccccc21)NCc1ccccc1Cl	5.01 µM [falling, full curve, poor fit]	–
COc1ccc(Oc2cc(NC(=O)c3nn(C)cc3[N+](=O)[O-])cc([N+](=O)[O-])c2)cc1	0.92 µM [falling, full curve, poor fit]	–
CC1CCCC(C)N1C(=O)CSc1nc2c(c(=O)n(C)c(=O)n2C)n1C (configuration not stated)	4.47 µM [falling, full curve]	–
COC(=O)C1=C(c2ccc(F)cc2OCc2ccccc2)C[C@@H]2CC[C@H]1N2C(=O)NCc1ccccc1	29.1 µM [falling, single point]	–
O=C1NC(=S)N(c2ccc(Br)cc2)C(=O)/C1=C/N1CCN(C(=O)c2ccco2)CC1	35.5 µM [rising, single point]	–
C/C(=N\N1CCCCC1)c1c(O)[nH]c(=O)[nH]c1=O	1.46 µM [rising, full curve, poor fit]	5.8 µM [falling, partial curve, poor fit]
COC(=O)C1=C(c2ccc(Cl)c(C(F)(F)F)c2)C[C@@H]2CC[C@H]1N2C(=O)NCCCOC(C)C	29.1 µM [falling, single point]	–
O=C(CSc1n[nH]c(=O)n1C1CC1)Nc1cc(Cl)ccc1Oc1ccccc1	14.1 µM [falling, partial curve, poor fit]	–
O=C1NC(=O)N(Cc2ccccc2)C(=O)/C1=C/C=C/c1ccco1	35.5 µM [rising, single point]	35.5 µM [falling, single point]
CC(C)(C)n1cc(C(=O)c2ccccc2OCCCF)cn1	0.251 µM [rising, full curve, poor fit]	–
COc1cc(OC)c2c(c1)O[C@@H](c1ccc(OC)c(OC)c1)[C@H](O)C2	–	15.8 µM [falling, partial curve, poor fit]
Cn1c(=O)c2c(ncn2CCCl)n(C)c1=O	7.94 µM [falling, partial curve, poor fit]	–
CC[N+](CC)(CC)CCCOC(=O)C(O)(c1ccccc1)C1CCCCC1 (configuration not stated)	23.1 µM [rising, single point]	–
